Measurements as given in article PMC6769930.
These are yes or no findings as the source states them, for the method shown. Binding seen in cells or lysates may run through a third protein. Some binding calls cover weakened binding; strength is not graded here. Sequences can lack the tags named with a protein.

Amino acid sequences for entries named in this document (tags omitted).
UniProt P17931: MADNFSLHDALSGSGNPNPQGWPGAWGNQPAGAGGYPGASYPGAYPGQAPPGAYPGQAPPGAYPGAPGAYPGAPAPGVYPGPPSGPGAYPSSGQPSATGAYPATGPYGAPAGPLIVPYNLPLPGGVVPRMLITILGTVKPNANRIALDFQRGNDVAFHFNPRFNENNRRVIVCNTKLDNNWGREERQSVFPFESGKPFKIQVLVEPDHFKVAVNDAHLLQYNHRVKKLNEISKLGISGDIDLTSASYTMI
UniProt P19474: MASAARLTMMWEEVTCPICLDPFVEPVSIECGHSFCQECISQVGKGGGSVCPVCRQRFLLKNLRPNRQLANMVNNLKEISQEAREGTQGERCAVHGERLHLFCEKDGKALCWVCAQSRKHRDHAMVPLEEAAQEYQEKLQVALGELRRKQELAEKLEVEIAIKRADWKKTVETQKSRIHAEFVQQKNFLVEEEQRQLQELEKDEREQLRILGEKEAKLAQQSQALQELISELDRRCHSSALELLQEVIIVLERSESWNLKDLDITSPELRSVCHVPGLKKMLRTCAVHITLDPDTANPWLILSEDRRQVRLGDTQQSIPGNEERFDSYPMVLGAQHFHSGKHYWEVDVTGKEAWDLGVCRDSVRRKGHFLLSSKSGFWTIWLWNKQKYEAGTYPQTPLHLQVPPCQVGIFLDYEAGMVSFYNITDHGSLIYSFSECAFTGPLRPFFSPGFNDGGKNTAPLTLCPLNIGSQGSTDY

What was measured:
[1] = target: human galectin-3 from pcDNA3.1-Gal-3 (human) (UniProt P17931); experiment: co-IP; CHO-K1 cells co-transfected with pcEXV-HA-EngFL and pcDNA3.1-Gal-3; lysis in 1% NP-40, 150 mM NaCl, 50 mM Tris pH 7.4; IP with anti-endoglin or anti-galectin-3 on protein G magnetic beads overnight at 4 °C; Western blot
[2] = target: human TRIM21 from pcDNA3.1-HA-hTRIM21 (human) (UniProt P19474); experiment: co-IP; CHO-K1 cells co-transfected with pcDNA3.1-HA-hTRIM21 and pDisplay-HA-endoglin constructs (FL, EC, TMEC); IP with anti-TRIM21 or anti-endoglin on protein G magnetic beads; Western blot

Binder	binding [1]	binding [2]
human endoglin, full-length, from pcEXV-HA-EngFL (receptor, UniProt P17813 26-658) ETVHCDLQPVGPERGEVTYTTSQVSKGCVAQAPNAILEVHVLFLEFPTGPSQLELTLQASKQNGTWPREVLLVLSVNSSVFLHLQALGIPLHLAYNSSLVTFQEPPGVNTTELPSFPKTQILEWAAERGPITSAAELNDPQSILLRLGQAQGSLSFCMLEASQDMGRTLEWRPRTPALVRGCHLEGVAGHKEAHILRVLPGHSAGPRTVTVKVELSCAPGDLDAVLILQGPPYVSWLIDANHNMQIWTTGEYSFKIFPEKNIRGFKLPDTPQGLLGEARMLNASIVASFVELPLASIVSLHASSCGGRLQTSPAPIQTTPPKDTCSPELLMSLIQTKCADDAMTLVLKKELVAHLKCTITGLTFWDPSCEAEDRGDKFVLRSAYSSCGMQVSASMISNEAVVNILSSSSPQRKKVHCLNMDSLSFQLGLYLSPHFLQASNTIEPGQQSFVQVRVSPSVSEFLLQLDSCHLDLGPEGGTVELIQGRAAKGNCVSLLSPSPEGDPRFSFLLHFYTVPIPKTGTLSCTVALRPKTGSQDQEVHRTVFMRLNIISPDLSGCTSKGLVLPAVLGITFGAFLIGALLTAALWYIYSHTRSPSKREPVVAVAAPASSESSSTNHSIGSTQSTPCSTSSMA	binds	–
human endoglin extracellular region from pDisplay-HA-EngEC (domain or fragment, UniProt P17813 26-586) ETVHCDLQPVGPERGEVTYTTSQVSKGCVAQAPNAILEVHVLFLEFPTGPSQLELTLQASKQNGTWPREVLLVLSVNSSVFLHLQALGIPLHLAYNSSLVTFQEPPGVNTTELPSFPKTQILEWAAERGPITSAAELNDPQSILLRLGQAQGSLSFCMLEASQDMGRTLEWRPRTPALVRGCHLEGVAGHKEAHILRVLPGHSAGPRTVTVKVELSCAPGDLDAVLILQGPPYVSWLIDANHNMQIWTTGEYSFKIFPEKNIRGFKLPDTPQGLLGEARMLNASIVASFVELPLASIVSLHASSCGGRLQTSPAPIQTTPPKDTCSPELLMSLIQTKCADDAMTLVLKKELVAHLKCTITGLTFWDPSCEAEDRGDKFVLRSAYSSCGMQVSASMISNEAVVNILSSSSPQRKKVHCLNMDSLSFQLGLYLSPHFLQASNTIEPGQQSFVQVRVSPSVSEFLLQLDSCHLDLGPEGGTVELIQGRAAKGNCVSLLSPSPEGDPRFSFLLHFYTVPIPKTGTLSCTVALRPKTGSQDQEVHRTVFMRLNIISPDLSGCTSKG	–	binds
